The record followed here is PMC5667929.

By UniProt entry, the sequences of proteins in these tests, tags left out. Residues count along the entry.
UniProt P29555, residues 261-590: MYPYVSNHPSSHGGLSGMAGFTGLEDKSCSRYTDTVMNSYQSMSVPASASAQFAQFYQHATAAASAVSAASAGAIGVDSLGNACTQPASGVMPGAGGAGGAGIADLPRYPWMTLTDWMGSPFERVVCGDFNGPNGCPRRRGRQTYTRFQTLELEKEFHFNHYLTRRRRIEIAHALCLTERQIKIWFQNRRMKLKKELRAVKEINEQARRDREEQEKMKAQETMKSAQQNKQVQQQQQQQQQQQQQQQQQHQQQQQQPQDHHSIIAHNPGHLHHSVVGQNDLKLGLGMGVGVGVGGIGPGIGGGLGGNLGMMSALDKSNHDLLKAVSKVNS
UniProt P13002, residues 551-1333: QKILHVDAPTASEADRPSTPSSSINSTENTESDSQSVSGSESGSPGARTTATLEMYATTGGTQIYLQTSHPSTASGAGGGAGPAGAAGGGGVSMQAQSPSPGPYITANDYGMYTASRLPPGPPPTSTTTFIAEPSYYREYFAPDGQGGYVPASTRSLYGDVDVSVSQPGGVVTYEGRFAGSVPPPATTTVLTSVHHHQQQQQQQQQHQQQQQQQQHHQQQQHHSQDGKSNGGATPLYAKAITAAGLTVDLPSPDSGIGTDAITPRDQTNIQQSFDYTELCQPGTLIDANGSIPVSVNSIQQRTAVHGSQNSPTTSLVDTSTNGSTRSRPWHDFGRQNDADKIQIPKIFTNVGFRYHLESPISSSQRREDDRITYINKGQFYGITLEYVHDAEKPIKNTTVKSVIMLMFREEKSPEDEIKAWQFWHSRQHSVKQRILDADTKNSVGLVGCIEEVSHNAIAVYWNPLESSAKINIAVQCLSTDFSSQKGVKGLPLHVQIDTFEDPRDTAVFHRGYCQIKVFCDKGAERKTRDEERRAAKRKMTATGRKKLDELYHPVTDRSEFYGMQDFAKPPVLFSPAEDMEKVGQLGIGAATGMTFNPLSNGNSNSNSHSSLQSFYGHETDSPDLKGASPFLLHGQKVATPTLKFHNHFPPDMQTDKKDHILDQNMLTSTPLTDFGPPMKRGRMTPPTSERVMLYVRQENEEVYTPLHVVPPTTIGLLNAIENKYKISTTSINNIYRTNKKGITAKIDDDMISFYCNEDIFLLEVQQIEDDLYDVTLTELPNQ

This test has as its target truncated GST tagged AbdA (261 to 590 aa) (Drosophila) (UniProt P29555). Kind of test: pull-down; bead bound GST-AbdA or GST incubated with equal amount of His-Grh bacterial lysate for 12 hours at 4°C; SDS-PAGE, blot with anti-His; only the target purified.

Results are given in words; binding and its absence hold for the method and conditions named. Binding seen in cells or lysates may run through a third protein. Some entries that bind do so weakly or less than the wild type.

In the case of “His tagged Grh (551-1333 aa) (from UniProt P13002 551-1333) (domain or fragment)”, the binding result is “binds”.
